In PubChem BioAssay AID2685 (National Center for Advancing Translational Sciences (NCATS), 2010):
This is one part of the list. Further columns of the screen follow, without active or inactive calls. Compounds called inactive in the main read-out are mostly missing here. Potencies come from curve fits of mixed quality, noted in brackets.

Assay: qHTS Assay for Lipid Storage Modulators in Drosophila S3 Cells;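 on cell number change: cells counted by Cell Tracker Red CMTPX staining in the red channel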
Settings: BODIPY lipid droplet fluorescence, 18-24 h; for cell number change: measured here: cell count max response, cells fed with added oleic acid
In short: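 Drosophila S3 cells got compounds at several concentrations plus oleic acid (400 uM solution). Laser-scanning cytometry with 488 nm excitation read lipid droplets at 500-530 nm and cells at 575-640 nm. Percent activity was relative to 20 uM Triacsin C.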

[1] = measured here: lipid fluorescence (Fed channel) AC50, cells fed with added oleic acid
[2] = measured here: cell number channel AC50, cells fed with added oleic acid

SMILES | cell number change [%] | AC50 [1] | AC50 [2]
CN(C)S(=O)(=O)NCCNc1ccc(C(F)(F)F)cc1[N+](=O)[O-] | 91.4 |  | 
CCN(c1ccccc1)S(=O)(=O)c1ccc(OC)c(NC(=O)COc2ccc(C(C)=O)cc2)c1 | 28.1 | 6.51 µM [rising, partial curve] | 
CCOC(=O)c1cnc(SC2CCc3ccccc3C2=O)nc1N (stereo not drawn) | 7.71 |  | 2.59 µM [rising, single point]
Cc1cc(NC(=O)C2CC2)ccc1NC(=O)c1cccs1 | -5.56 |  | 0.00461 µM [falling, full curve, poor fit]
O=C1CSc2nc3ccccc3n21 | -12.5 | 6.51 µM [rising, single point] | 
Cc1ccc2c(NC(=O)C3CC3)c(C)ccc2n1 | 1.08 | 29.1 µM [rising, single point] | 
Cc1ccc(NC(=O)CSc2nccn(-c3ccc4c(c3)OCCO4)c2=O)cc1 | -50 |  | 7.31 µM [falling, partial curve]
CCc1nc(SCC(=O)Nc2ccccc2OC)c2c(C)c(C)sc2n1 | 7.89 | 35.5 µM [falling, single point] | 
CC1(C)CC(C#N)(N2CCOCC2)CCO1 (stereo not drawn) | -13.7 | 0.731 µM [falling, full curve, poor fit] | 0.82 µM [falling, full curve, poor fit]
O=c1c(-c2n[nH]c(=S)n2-c2ccccc2)cccn1Cc1cccc(Cl)c1 | 10.2 |  | 
CN(CC(=O)Nc1ccc(F)c(F)c1F)C(=O)C1CCN(C(=O)Nc2ccccc2)CC1 | -7.8 |  | 
Cc1ccc(-c2n[nH]c(=S)n2/N=C/c2cc3c(cc2[N+](=O)[O-])OCO3)cc1 | 2.8 |  | 6.51 µM [falling, single point]
O=C(CSC1CCCCC1)N1CCN(c2ccccc2)CC1 | 10.7 |  | 
CCN(CC)Cc1nc2c(c(=O)[nH]1)C1(CCCC1)Cc1ccccc1-2 | -58.2 | 20.6 µM [falling, partial curve, poor fit] | 16.4 µM [falling, partial curve]
Cc1ccc(NC(=O)Cc2nnc(SCC(=O)Nc3nncs3)n2C)c(C)c1 | 9.46 | 4.11 µM [rising, full curve] | 
CN1CCN(C(=O)C2CCN(c3ncnc4c3nc3n4CCCCC3)CC2)CC1 | 0.597 |  | 
CCN(CC)c1ccc(C(=O)OCC(=O)Nc2ccccc2-c2ccccc2)cc1 | 3.03 | 1.64 µM [rising, partial curve] | 0.517 µM [rising, partial curve]
O=c1[nH]c(N/N=C/c2ccccc2)nc2ccccc12 | 64.1 |  | 20.6 µM [rising, single point]
O=C(Cc1cccs1)N1CCN(S(=O)(=O)c2ccc(Cl)c(C(F)(F)F)c2)CC1 | -20.9 |  | 0.366 µM [falling, full curve, poor fit]
CCCCNS(=O)(=O)/C=C/c1ccccc1 | 9.25 | 0.731 µM [falling, single point] | 

Some entries already given, limited to cell number change [%] and AC50 [1].

| SMILES | cell number change [%] | AC50 [1] |
| --- | --- | --- |
| Cc1ccc(NC(=O)CSc2nccn(-c3ccc4c(c3)OCCO4)c2=O)cc1 | -50 |  |
| CCc1nc(SCC(=O)Nc2ccccc2OC)c2c(C)c(C)sc2n1 | 7.89 | 35.5 µM [falling, single point] |
| CC1(C)CC(C#N)(N2CCOCC2)CCO1 (stereo not drawn) | -13.7 | 0.731 µM [falling, full curve, poor fit] |

More structures:

SMILES | cell number change [%] | AC50 [1] | AC50 [2]
CN(NC(=O)Nc1ccc(Cl)cc1)c1c(Cl)c(Cl)nn1C |  | 3.66 µM [rising, full curve] | 3.66 µM [rising, single point]
COc1ccc2nc(C)cc(N3CCN(S(=O)(=O)c4ccccc4F)CC3)c2c1 | -10.4 | 6.51 µM [rising, single point] | 
CC(C)c1nc2sc3c(c2c(=O)o1)CCCC3 | -10 |  | 
N#Cc1ccc(C(=O)NNC(=O)c2ccncc2)cc1 | 35.8 | 29.1 µM [rising, single point] | 
CCn1nnnc1NCc1ccc(Cl)cc1 | 2.35 | 10.3 µM [rising, partial curve] | 
Cc1ccc(S(=O)(=O)N2CCOCC2)cc1NC(=O)COC(=O)c1cc[n+]([O-])cc1 | -23.7 | 4.11 µM [falling, single point] | 6.51 µM [falling, single point]
COc1ccc2c(c1)CC[C@@H]1[C@@H]2CC[C@]2(C)[C@@H](C(=O)O)C[C@@H]12 | -20.2 | 11.6 µM [rising, partial curve, poor fit] | 
Cc1ccc(S(=O)(=O)N2CCN(CC(=O)NCC3(N4CCOCC4)CCCCC3)CC2)cc1 |  | 6.51 µM [falling, partial curve, poor fit] | 
C1CCC2=NCCCN2CC1 | -14.1 |  | 6.51 µM [falling, single point]
COc1ccc(CCNC(=O)CSc2nncs2)cc1 | 1.88 | 32.6 µM [falling, partial curve, poor fit] | 
COc1ccc(C(=O)N2CCN(c3ccccc3)CC2)cc1S(=O)(=O)N1CCCC1 | 17.8 | 29.1 µM [rising, single point] | 
Cc1cc(C)c(C)c(Cn2c(CO)nc3ccccc32)c1C | -42.5 | 29.1 µM [falling, single point] | 29.1 µM [falling, single point]
N=C1C(c2ccccc2)=C(O)CN1CCCO | 35.9 | 29.1 µM [rising, single point] | 16.4 µM [rising, single point]
CCN(CC)CCCNC(=O)c1ccc2c(SCC(=O)O)c3c(nc2c1)CCC3 | 33.7 | 14.6 µM [falling, partial curve] | 29.1 µM [rising, single point]
C=CCSc1nnnn1-c1ccc(OC)cc1 | 20 | 6.51 µM [falling, single point] | 
CCCC(NS(=O)(=O)c1ccc(-c2ccc(=O)[nH]n2)s1)c1cccs1 (stereo not drawn) | -10 |  | 
Cc1cc(C)n2nc(SCC(=O)Nc3ccccc3)nc2n1 | 137 | 29.1 µM [rising, single point] | 
O=c1c2[nH]c3ccccc3c2ncn1Cc1ccccn1 | -10.6 | 0.651 µM [falling, partial curve, poor fit] | 
Cc1cc(C(=O)CSc2nnc(-c3ccc(Cl)cc3)n2CC2CCCO2)c(C)n1C (stereo not drawn) | 5.94 |  | 
CCCSc1ccc(-c2nn(-c3ccccc3)cc2/C=C(/C#N)C(=O)NCCCOC)cc1 | -83.3 |  | 29.1 µM [falling, single point]
